Article PMC10156737
No constants are given. Whether binding was seen depends on the method and setting. In cells and extracts the contact can be indirect. Some results given as binding are weak or reduced against the parent protein; the word gives no strength.

Protein sequences, listed by entry. Tags and fused reporters are not part of them. Lines headed by an entry give the natural chain unless they say otherwise; changes in a name come on top. Chains listed by the source or under a name are the forms on record and can include a tag or linker. Residues count along the entry.
complement component C8 alpha chain, GFP-tagged (C8A-GFP) (P07357, residues 31-584): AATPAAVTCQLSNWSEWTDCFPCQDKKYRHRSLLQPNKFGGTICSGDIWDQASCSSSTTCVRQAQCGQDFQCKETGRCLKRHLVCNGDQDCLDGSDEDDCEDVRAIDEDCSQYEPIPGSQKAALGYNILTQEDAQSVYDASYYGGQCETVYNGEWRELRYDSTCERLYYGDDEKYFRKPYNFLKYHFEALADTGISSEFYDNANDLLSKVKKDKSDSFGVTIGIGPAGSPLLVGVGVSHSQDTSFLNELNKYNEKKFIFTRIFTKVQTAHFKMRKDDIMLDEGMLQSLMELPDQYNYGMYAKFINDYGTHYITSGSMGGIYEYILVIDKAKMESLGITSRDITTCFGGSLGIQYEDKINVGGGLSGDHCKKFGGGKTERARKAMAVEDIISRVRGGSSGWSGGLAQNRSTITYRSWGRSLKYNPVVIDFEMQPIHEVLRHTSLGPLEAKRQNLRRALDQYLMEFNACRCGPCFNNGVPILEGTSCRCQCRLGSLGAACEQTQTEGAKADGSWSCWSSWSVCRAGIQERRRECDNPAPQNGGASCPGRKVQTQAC
complement component C8 alpha chain variant R444H, GFP-tagged (C8A-Variant-GFP) (P07357, form named): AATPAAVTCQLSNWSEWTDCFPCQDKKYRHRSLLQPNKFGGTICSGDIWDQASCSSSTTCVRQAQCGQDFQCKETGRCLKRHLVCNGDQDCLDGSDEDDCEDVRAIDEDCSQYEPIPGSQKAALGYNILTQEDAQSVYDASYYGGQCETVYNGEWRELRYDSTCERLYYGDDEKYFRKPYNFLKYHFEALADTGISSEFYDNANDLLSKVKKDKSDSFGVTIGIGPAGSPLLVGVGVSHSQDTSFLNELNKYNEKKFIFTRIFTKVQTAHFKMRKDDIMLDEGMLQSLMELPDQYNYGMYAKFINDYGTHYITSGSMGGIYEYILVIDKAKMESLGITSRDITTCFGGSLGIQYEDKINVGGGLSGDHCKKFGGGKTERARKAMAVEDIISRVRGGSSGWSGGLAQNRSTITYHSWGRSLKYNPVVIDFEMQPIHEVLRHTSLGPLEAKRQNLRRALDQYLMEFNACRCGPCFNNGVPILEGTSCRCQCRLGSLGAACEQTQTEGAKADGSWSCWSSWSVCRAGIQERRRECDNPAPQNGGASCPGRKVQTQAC
complement component C8 beta chain, GFP-tagged (C8B-GFP) (P07358, residues 55-591): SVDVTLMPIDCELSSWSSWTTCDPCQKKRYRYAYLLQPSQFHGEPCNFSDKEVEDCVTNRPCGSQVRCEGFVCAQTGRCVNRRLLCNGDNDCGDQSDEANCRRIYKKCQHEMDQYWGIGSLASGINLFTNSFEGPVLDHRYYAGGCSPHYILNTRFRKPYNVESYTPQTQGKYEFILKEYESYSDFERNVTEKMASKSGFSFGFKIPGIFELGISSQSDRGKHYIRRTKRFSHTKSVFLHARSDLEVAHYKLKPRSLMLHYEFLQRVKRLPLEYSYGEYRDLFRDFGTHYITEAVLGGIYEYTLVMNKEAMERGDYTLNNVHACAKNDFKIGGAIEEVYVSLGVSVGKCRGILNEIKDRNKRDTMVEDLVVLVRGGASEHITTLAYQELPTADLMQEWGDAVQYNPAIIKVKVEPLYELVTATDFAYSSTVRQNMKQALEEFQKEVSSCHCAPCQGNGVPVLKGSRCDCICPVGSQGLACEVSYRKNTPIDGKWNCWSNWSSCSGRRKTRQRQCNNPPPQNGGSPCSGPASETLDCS
complement component C8 beta chain variant D382Y, GFP-tagged (C8B-Variant-GFP) (P07358, form named): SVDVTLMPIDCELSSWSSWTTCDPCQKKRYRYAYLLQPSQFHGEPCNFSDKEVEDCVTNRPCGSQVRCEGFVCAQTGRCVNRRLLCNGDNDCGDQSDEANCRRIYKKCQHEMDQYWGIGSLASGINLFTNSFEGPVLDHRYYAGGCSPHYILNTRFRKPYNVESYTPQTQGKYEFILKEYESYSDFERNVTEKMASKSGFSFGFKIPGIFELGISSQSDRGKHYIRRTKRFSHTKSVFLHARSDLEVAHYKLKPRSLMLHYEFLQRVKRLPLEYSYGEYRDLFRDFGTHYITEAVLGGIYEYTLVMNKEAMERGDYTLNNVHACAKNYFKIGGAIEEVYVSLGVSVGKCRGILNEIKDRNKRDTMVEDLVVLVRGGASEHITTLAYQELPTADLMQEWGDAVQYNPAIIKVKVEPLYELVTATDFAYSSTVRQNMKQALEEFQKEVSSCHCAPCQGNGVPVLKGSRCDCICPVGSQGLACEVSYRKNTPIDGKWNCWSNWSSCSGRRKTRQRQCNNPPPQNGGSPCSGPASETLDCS
UniProt P07360, residues 21-202: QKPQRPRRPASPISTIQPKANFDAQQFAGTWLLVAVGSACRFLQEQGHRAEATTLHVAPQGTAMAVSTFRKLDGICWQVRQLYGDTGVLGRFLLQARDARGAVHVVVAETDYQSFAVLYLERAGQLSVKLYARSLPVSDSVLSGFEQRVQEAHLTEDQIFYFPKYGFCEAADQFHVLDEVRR

Experiments:
Assay in all cases: co-IP; lysates (450 ug protein, Pierce IP Lysis Buffer) of HEK293 cells co-transfected with all three C8 subunits (wild type, or with the C8A or the C8B variant); 1 ug rabbit monoclonal anti-C8A or anti-C8B, 4°C overnight; Dynabeads Protein A; washed with PBS pH 7.4, 0.02% Tween 20; western blot for C8A, C8B and C8G; rabbit IgG as negative control
[1] = molecular target: complement component C8 alpha chain, GFP-tagged (C8A-GFP) (human) (UniProt P07357)
[2] = molecular target: complement component C8 alpha chain variant R444H, GFP-tagged (C8A-Variant-GFP) (human) (UniProt P07357)
[3] = molecular target: complement component C8 beta chain, GFP-tagged (C8B-GFP) (human) (UniProt P07358)
[4] = molecular target: complement component C8 beta chain variant D382Y, GFP-tagged (C8B-Variant-GFP) (human) (UniProt P07358)

Substance	binding [1]	binding [2]	binding [3]	binding [4]
complement component C8 beta chain, GFP-tagged (C8B-GFP) (from UniProt P07358 55-591)	binds	binds		
complement component C8 gamma chain, DDK (FLAG)-tagged (C8G-FLAG) (from UniProt P07360 21-202)	binds	binds	binds	binds
complement component C8 beta chain variant D382Y, GFP-tagged (C8B-Variant-GFP) (from UniProt P07358 55-591)	binds			
